Some targets named below: SLD-2 8A (C. elegans); SLD-2 8D (C. elegans); SLD-2 EDDD (C. elegans).
Common to all, as to experiment: two-hybrid; yeast two-hybrid of fragments and mutants: PKC-3 fragments with full length SLD-2; SLD-2 fragments and mutants with PKC-3 (1–219); scored +/-
The target in assay [1] is SLD-2, full length (C. elegans) (UniProt O44761).

No constants are given. Whether binding was seen depends on the method and setting. For some assays here: A result given as binding can be weak or reduced; the word gives no strength.

B1: PKC-3 region 94–184 (domain or fragment, UniProt Q19266 94-184)
chain: VGKPELPGLPCQGEDKTVYRRGARRWKKIYLYNGHRFQAKRLNRRIQCFICHDYIWGIGRQGFRCVDCRLCVHKKCHRHVRTHCGQALQGP
Take B1: the binding entry in assay [1] is on record as “binds”.

B2: PKC-3 (1–219) (domain or fragment, UniProt Q19266 1-219)
chain: MSSPTSLEEDGDIKLKTRFQGQVVVLYARPPLILDDFFALLKDACKQHKKQDITVKWIDEDGDPISIDSQMELDEAVRCLNSSQEAELNIHVFVGKPELPGLPCQGEDKTVYRRGARRWKKIYLYNGHRFQAKRLNRRIQCFICHDYIWGIGRQGFRCVDCRLCVHKKCHRHVRTHCGQALQGPNIIPMAPASGSLKGARSNTSSSTTRSGGGIDNGAF
For the molecule B2, the binding result with SLD-2 8A (C. elegans) was “binds”; in assay [1], “binds”; in the assay with SLD-2 8D (C. elegans), “binds”; with SLD-2 EDDD (C. elegans) it was “no binding”.

For the origin of these results see article PMC7771872.
